Test results reported in article PMC3414498.
Residue numbers refer to the chain shown, from its start. Names may count otherwise. No constants are given. Whether binding was seen depends on the method and setting. Binding seen in cells or lysates may run through a third protein. A result given as binding can be weak or reduced; the word gives no strength. Tags and fused reporters may be left off the sequences shown.

T1: EDEM1 wild type (mouse), HA-tagged (mouse) (UniProt Q925U4)
T1 sequence: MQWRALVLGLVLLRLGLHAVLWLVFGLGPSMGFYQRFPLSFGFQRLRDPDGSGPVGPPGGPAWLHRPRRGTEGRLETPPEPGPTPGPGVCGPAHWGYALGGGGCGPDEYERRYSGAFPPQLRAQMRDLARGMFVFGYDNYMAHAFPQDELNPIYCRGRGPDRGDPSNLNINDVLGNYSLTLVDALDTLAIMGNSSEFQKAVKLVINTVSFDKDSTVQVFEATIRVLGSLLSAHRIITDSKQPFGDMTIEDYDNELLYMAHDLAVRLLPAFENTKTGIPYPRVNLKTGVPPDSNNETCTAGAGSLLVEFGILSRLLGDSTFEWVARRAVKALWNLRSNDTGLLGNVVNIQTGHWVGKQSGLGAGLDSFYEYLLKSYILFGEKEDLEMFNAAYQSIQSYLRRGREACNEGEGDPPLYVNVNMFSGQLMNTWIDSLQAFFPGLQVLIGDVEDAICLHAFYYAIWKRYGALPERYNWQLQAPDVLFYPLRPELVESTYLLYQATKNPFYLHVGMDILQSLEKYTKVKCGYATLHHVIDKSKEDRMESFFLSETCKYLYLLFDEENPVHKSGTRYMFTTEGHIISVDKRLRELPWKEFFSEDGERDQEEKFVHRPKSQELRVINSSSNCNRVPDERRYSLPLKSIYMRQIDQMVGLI

B1: EDEM1 wild type (mouse), HA-tagged (protein, UniProt Q925U4 1-652)
chain: T1 sequence
B2: EDEM1-AVV (mouse EDEM1 triple mutant D365A/E488V/T574V), HA-tagged (protein, UniProt Q925U4 1-652)
chain: T1 sequence with D365A, E488V, T574V
B3: EDEM1-ΔIDR (mouse EDEM1 lacking the ID region, amino acids 48-119), HA-tagged (protein, UniProt Q925U4)
chain: MQWRALVLGLVLLRLGLHAVLWLVFGLGPSMGFYQRFPLSFGFQRLRQLRAQMRDLARGMFVFGYDNYMAHAFPQDELNPIYCRGRGPDRGDPSNLNINDVLGNYSLTLVDALDTLAIMGNSSEFQKAVKLVINTVSFDKDSTVQVFEATIRVLGSLLSAHRIITDSKQPFGDMTIEDYDNELLYMAHDLAVRLLPAFENTKTGIPYPRVNLKTGVPPDSNNETCTAGAGSLLVEFGILSRLLGDSTFEWVARRAVKALWNLRSNDTGLLGNVVNIQTGHWVGKQSGLGAGLDSFYEYLLKSYILFGEKEDLEMFNAAYQSIQSYLRRGREACNEGEGDPPLYVNVNMFSGQLMNTWIDSLQAFFPGLQVLIGDVEDAICLHAFYYAIWKRYGALPERYNWQLQAPDVLFYPLRPELVESTYLLYQATKNPFYLHVGMDILQSLEKYTKVKCGYATLHHVIDKSKEDRMESFFLSETCKYLYLLFDEENPVHKSGTRYMFTTEGHIISVDKRLRELPWKEFFSEDGERDQEEKFVHRPKSQELRVINSSSNCNRVPDERRYSLPLKSIYMRQIDQMVGLI

Key:
[1] = molecular target: T1, EDEM1 wild type (mouse), HA-tagged (mouse); assay: co-IP; HEK 293T cells co-transfected with tyrosinase and EDEM1 constructs, [35S]-methionine/cysteine pulse 20 or 30 min, chase up to 2 h, lysed in 2% CHAPS, 50 mM Hepes, 200 mM NaCl, pH 7.5; immunoprecipitated with anti-tyrosinase (T311) or anti-EDEM1 (or HA) antibodies, 24 h at 4°C; SDS-PAGE and autoradiography
[2] = molecular target: truncated soluble tyrosinase lacking its transmembrane domain; assay: as above

Row | Molecule | binding [1] | binding [2]
1 | truncated soluble tyrosinase lacking its transmembrane domain (domain or fragment) | binds | –
2 | B1 | – | binds
3 | B2 | – | binds
4 | B3 | – | no binding
